From publication PMC6398486 come the findings set out here.

Sequences of proteins named here, by UniProt entry; tags and fusion partners are left off.
UniProt P51149: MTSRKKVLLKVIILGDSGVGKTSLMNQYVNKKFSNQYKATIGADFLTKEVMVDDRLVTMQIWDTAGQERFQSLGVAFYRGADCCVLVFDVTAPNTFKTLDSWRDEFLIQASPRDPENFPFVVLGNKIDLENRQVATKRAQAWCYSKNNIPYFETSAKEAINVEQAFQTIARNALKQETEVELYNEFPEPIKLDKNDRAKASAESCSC
UniProt Q96RL7: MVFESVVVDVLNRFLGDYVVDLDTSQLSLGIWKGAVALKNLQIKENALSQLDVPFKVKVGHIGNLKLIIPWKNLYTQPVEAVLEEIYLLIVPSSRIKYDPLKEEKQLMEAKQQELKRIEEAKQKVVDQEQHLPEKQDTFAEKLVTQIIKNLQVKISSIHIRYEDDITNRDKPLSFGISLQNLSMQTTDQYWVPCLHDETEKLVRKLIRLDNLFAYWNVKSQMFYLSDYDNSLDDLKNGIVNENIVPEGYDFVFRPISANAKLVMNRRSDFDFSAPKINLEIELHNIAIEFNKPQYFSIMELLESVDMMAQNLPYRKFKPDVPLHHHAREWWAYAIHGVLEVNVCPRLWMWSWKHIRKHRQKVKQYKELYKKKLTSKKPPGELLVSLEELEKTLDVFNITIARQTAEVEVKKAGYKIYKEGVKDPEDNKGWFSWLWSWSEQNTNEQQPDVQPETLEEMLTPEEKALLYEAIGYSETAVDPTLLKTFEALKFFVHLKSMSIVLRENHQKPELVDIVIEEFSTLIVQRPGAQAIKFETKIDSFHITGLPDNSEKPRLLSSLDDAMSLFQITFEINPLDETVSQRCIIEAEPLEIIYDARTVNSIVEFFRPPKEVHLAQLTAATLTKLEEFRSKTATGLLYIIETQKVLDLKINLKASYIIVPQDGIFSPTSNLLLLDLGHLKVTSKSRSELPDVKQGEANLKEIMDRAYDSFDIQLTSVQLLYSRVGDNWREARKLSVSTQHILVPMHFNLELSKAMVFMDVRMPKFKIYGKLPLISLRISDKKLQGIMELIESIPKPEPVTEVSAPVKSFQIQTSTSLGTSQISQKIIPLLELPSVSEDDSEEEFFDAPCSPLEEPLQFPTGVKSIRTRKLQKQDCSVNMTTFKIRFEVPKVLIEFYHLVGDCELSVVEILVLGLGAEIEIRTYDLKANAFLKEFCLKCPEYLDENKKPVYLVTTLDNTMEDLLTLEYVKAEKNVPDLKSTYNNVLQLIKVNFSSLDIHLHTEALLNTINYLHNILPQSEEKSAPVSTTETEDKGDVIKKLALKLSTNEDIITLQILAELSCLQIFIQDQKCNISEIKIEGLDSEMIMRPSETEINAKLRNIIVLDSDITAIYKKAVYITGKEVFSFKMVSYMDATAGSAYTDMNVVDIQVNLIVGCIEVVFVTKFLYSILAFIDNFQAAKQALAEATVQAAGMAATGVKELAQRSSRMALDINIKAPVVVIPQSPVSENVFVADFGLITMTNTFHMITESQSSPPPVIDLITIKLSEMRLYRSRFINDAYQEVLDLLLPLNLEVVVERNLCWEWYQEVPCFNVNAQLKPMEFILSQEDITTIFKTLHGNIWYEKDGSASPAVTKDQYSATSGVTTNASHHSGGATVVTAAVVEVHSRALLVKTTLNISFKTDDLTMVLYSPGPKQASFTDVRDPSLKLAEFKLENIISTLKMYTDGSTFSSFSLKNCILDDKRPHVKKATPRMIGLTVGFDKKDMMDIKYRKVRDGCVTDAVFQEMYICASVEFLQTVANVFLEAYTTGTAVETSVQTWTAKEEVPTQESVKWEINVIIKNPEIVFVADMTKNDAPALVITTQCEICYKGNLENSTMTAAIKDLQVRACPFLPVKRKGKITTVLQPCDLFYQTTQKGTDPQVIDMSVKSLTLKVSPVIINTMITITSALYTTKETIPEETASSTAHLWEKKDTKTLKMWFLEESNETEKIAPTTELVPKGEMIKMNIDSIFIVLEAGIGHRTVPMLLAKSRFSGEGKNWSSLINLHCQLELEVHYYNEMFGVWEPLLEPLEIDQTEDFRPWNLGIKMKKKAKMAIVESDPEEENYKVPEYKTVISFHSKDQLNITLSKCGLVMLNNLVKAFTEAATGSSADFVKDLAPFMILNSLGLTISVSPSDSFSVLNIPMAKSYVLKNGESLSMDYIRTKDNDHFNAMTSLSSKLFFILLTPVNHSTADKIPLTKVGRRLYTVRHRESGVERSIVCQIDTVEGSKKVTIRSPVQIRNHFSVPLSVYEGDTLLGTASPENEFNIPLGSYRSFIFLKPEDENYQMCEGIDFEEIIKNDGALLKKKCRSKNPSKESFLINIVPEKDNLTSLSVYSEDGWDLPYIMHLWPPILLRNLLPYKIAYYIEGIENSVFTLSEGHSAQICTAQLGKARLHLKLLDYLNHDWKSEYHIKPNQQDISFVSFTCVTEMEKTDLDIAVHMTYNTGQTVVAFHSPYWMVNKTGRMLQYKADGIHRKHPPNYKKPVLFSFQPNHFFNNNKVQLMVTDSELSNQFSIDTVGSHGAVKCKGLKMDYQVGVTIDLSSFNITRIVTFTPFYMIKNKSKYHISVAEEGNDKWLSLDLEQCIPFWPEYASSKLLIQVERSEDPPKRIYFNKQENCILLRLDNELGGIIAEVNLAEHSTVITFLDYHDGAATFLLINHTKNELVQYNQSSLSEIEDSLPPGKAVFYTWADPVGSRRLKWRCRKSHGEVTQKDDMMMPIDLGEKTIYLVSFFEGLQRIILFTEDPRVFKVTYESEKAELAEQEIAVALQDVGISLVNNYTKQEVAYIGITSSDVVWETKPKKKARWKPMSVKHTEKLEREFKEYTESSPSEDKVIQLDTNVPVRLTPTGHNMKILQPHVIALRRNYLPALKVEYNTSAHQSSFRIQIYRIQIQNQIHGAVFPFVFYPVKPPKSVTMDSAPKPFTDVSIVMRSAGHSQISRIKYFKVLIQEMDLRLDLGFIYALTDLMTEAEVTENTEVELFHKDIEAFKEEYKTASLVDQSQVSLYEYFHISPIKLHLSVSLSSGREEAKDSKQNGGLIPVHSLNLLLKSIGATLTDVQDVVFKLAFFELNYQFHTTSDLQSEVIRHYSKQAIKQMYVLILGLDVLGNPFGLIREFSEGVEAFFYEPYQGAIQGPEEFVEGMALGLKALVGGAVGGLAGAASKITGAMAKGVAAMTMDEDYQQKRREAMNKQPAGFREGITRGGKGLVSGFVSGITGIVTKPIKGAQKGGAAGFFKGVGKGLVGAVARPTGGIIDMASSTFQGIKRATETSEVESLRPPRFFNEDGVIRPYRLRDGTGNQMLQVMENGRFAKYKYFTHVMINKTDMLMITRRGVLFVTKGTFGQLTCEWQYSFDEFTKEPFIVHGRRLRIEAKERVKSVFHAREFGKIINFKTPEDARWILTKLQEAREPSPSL

No constants are given. Whether binding was seen depends on the method and setting. Binding seen in cells or lysates may run through a third protein. Some entries that bind do so weakly or less than the wild type.

The assay has as its target wild-type GFP-RAB7A (human) (UniProt P51149). The experiment in a line: co-IP; GFP-Trap A beads on lysates of HeLa cells transiently transfected with GFP-RAB7A forms; western blot with anti-VPS13A, anti-GFP and anti-RILP; 10 mM Tris-HCl pH 7.5, 150 mM NaCl, 4 h at 4°C. (Immunoblotting shows a protein as a band on a membrane.)

With VPS13A (from UniProt Q96RL7 1-3174), the binding result is reported as “binds”.
